Experimental data reported in article PMC6353870.
No constants are given. Whether binding was seen depends on the method and setting. Binding seen in cells or lysates may run through a third protein. Binding can be weak; no strength is given. Sequences can lack the tags named with a protein.

Experiments:
[1] = molecular target: 3xflag-EWS-FLI1 K380R; experiment: co-IP; myc-USP19 co-expressed with 3xflag-EWS-FLI1 wild-type or mutants (K298R or K380R); cell line not stated (Fig. S2d)
[2] = molecular target: 3xflag-EWS-FLI1 K298R; experiment: as above

B1: 3xmyc-USP19 (ubiquitin specific protease 19) (enzyme, UniProt O94966 1-1318)
chain: MSGGASATGPRRGPPGLEDTTSKKKQKDRANQESKDGDPRKETGSRYVAQAGLEPLASGDPSASASHAAGITGSRHRTRLFFPSSSGSASTPQEEQTKEGACEDPHDLLATPTPELLLDWRQSAEEVIVKLRVGVGPLQLEDVDAAFTDTDCVVRFAGGQQWGGVFYAEIKSSCAKVQTRKGSLLHLTLPKKVPMLTWPSLLVEADEQLCIPPLNSQTCLLGSEENLAPLAGEKAVPPGNDPVSPAMVRSRNPGKDDCAKEEMAVAADAATLVDEPESMVNLAFVKNDSYEKGPDSVVVHVYVKEICRDTSRVLFREQDFTLIFQTRDGNFLRLHPGCGPHTTFRWQVKLRNLIEPEQCTFCFTASRIDICLRKRQSQRWGGLEAPAARVGGAKVAVPTGPTPLDSTPPGGAPHPLTGQEEARAVEKDKSKARSEDTGLDSVATRTPMEHVTPKPETHLASPKPTCMVPPMPHSPVSGDSVEEEEEEEKKVCLPGFTGLVNLGNTCFMNSVIQSLSNTRELRDFFHDRSFEAEINYNNPLGTGGRLAIGFAVLLRALWKGTHHAFQPSKLKAIVASKASQFTGYAQHDAQEFMAFLLDGLHEDLNRIQNKPYTETVDSDGRPDEVVAEEAWQRHKMRNDSFIVDLFQGQYKSKLVCPVCAKVSITFDPFLYLPVPLPQKQKVLPVFYFAREPHSKPIKFLVSVSKENSTASEVLDSLSQSVHVKPENLRLAEVIKNRFHRVFLPSHSLDTVSPSDTLLCFELLSSELAKERVVVLEVQQRPQVPSVPISKCAACQRKQQSEDEKLKRCTRCYRVGYCNQLCQKTHWPDHKGLCRPENIGYPFLVSVPASRLTYARLAQLLEGYARYSVSVFQPPFQPGRMALESQSPGCTTLLSTGSLEAGDSERDPIQPPELQLVTPMAEGDTGLPRVWAAPDRGPVPSTSGISSEMLASGPIEVGSLPAGERVSRPEAAVPGYQHPSEAMNAHTPQFFIYKIDSSNREQRLEDKGDTPLELGDDCSLALVWRNNERLQEFVLVASKELECAEDPGSAGEAARAGHFTLDQCLNLFTRPEVLAPEEAWYCPQCKQHREASKQLLLWRLPNVLIVQLKRFSFRSFIWRDKINDLVEFPVRNLDLSKFCIGQKEEQLPSYDLYAVINHYGGMIGGHYTACARLPNDRSSQRSDVGWRLFDDSTVTTVDESQVVTRYAYVLFYRRRNSPVERPPRAGHSEHHPDLGPAAEAAASQASRIWQELEAEEEPVPEGSGPLGPWGPQDWVGPLPRGPTTPDEGCLRYFVLGTVAALVALVLNVFYPLVSQSRWR
binding [1]: binds | binding [2]: binds
